PubChem BioAssay AID743121, NCATS – 2013
Aim: 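Knock-downs that sensitise breast cancer cells to camptothecin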 (primary screen). Cells: MDA-MB-231 cells, a human breast cancer line. Reagents: single siRNA against human genes, 20 nM siRNA (0.8 pmol per well). Timing: 120 h (drug added 48 h after transfection, read 72 h later). Challenge: camptothecin 20 nM (about EC30) for 72 h; vehicle 0.1% DMSO in parallel plates. Read-out: 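CellTiter-Glo ATP signal, scaled to control siRNA as percent viability; sensitisation given as log2 of untreated divided by camptothecin-treated viability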. Direction: log2 vehicle/camptothecin viability: higher = stronger sensitisation to camptothecin; viability with camptothecin and viability without drug: higher = more viable cells. Rule for the call: 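Active genes have an RSA gene-level p-value below 0.001, computed from the ratios of their separate siRNAs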.
This is one part, drawn at random, of about 26,000 reagents tested. Of all reagents, 167 (0.63%) were called active. 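Calls are per gene from RSA p-values that are not deposited; an individual active-marked siRNA can sensitise only weakly.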 Entries without a mark were called inactive. Reagents against one gene are numbered here. No sequences are given here.

log2 vehicle/camptothecin viability	viability with camptothecin (% of control)	viability without drug (% of control)	target gene	reagent
-0.295	42.2	34.4	ACKR1 (GeneID 2532)	1
0.173	63.5	71.6	ACKR1 (GeneID 2532)	2
-0.0504	114	110	ACKR1 (GeneID 2532)	3
-0.422	55.7	41.5	ACKR1 (GeneID 2532)	4
-0.237	81.5	69.1	KIF1B (GeneID 23095)	1
-0.212	72.7	62.7	KIF1B (GeneID 23095)	2
-0.114	90.2	83.3	KIF1B (GeneID 23095)	3
-0.177	114	101	KIF1B (GeneID 23095)	4
-0.112	100	92.9	CXCL10 (GeneID 3627)	1
-0.25	74.5	62.6	CXCL10 (GeneID 3627)	2
-0.307	94	76	CXCL10 (GeneID 3627)	3
-0.39	73.1	55.8	CXCL10 (GeneID 3627)	4
0.213	47.5	55	TEC (GeneID 7006)	1
-0.488	85.2	60.7	TEC (GeneID 7006)	2
-0.0999	36.6	34.1	TEC (GeneID 7006)	3
0.359	59.5	76.3	TEC (GeneID 7006)	4
-0.399	95.4	72.4	SCN10A (GeneID 6336)	1
0.293	68.5	84	SCN10A (GeneID 6336)	2
0.92	34.4	65.1	SCN10A (GeneID 6336)	3
-0.32	117	94.1	SCN10A (GeneID 6336)	4

2 entries already listed, sorted by “viability without drug (% of control)”, low to high:
log2 vehicle/camptothecin viability	viability with camptothecin (% of control)	viability without drug (% of control)	target gene	reagent
-0.399	95.4	72.4	SCN10A (GeneID 6336)	1
0.293	68.5	84	SCN10A (GeneID 6336)	2

Next records follow.
log2 vehicle/camptothecin viability	viability with camptothecin (% of control)	viability without drug (% of control)	target gene	reagent
-0.595	59.2	39.2	UBE2V1 (GeneID 7335)	1
0.00369	55.6	55.7	UBE2V1 (GeneID 7335)	2
0.224	78	91.1	UBE2V1 (GeneID 7335)	3
-0.496	62.7	44.5	OTC (GeneID 5009)	1
-0.456	82.4	60	OTC (GeneID 5009)	2
-0.00941	84.7	84.2	OTC (GeneID 5009)	3
-0.00773	105	104	MAN2A1 (GeneID 4124)	1
0.0425	93.7	96.5	MAN2A1 (GeneID 4124)	2
-0.212	70	60.5	MAN2A1 (GeneID 4124)	3
-0.374	69.9	53.9	MAN2A1 (GeneID 4124)	4
